Taken from: PubChem BioAssay AID686937 (Drosophila RNAi Screening Center, 2013)

Screen: 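Genes in the fly needed for secretion of protein constitutively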 (primary screen)
Cell system: Drosophila S2 cells expressing secreted horseradish peroxidase
Knock-down reagent: long dsRNA against Drosophila genes
Time to read-out: about 5.5 days (5 days dsRNA, then 12 h reporter induction)
Challenge: reporter expression induced after 5 days of dsRNA, read 12 h later; inducer not stated
Measurement: 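Chemiluminescent measurement of peroxidase in the medium 12 h after reporter induction, following 5 days of dsRNA, given as a z-score per plate; higher means more secretion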
Direction: z-score: higher = more reporter secreted into medium
The screen tested about 23,000 reagents; this is a random part of those with a known target gene and a result. 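Reduced-secretion tags in replicate 1 do not always agree with the z-scores; no criterion for assigning the tags was given.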 A plus sign joins genes that one reagent is predicted to hit. Reagent sequences are not shown. Not stated in the record: the amount of reagent.

target	amplicon	z-score, replicate 1	z-score, replicate 2	z-score, replicate 3	z-score, replicate 4	phenotype, replicate 1
CG15753 (retired record) (GeneID 32306)	DRSC18982	-0.33	0.61	-0.06	-0.43	
CG15753 (retired record) (GeneID 32306)	DRSC19503	0.44	0.2			
CG15753 (retired record) (GeneID 32306)	DRSC19716	0.1	0.55			
CG15753 (retired record) (GeneID 32306)	DRSC19717	0.39	0.36			
CG15753 (retired record) (GeneID 32306)	DRSC19718	-4.94	-2.51			reduced secretion
SIFa (GeneID 3346202)	DRSC04480	0.26	0.19			
Mrtf (GeneID 38338)	DRSC08263	-0.82	-0.32			
Mrtf (GeneID 38338)	DRSC08410	-0.53	-1.01			
Mrtf (GeneID 38338)	DRSC08411	-1.23	-0.45			
CG42807 (GeneID 36511)	DRSC06966	0.45	0.37			
CG9775 (GeneID 40576)	DRSC12330	0.13	0.3			
CG9775 (GeneID 40576)	DRSC22667	-1.18	0.01			
Uggt (GeneID 40055)	DRSC11315	0.17	0.08			
CG2291 (GeneID 35804)	DRSC06836	0.25	0.39			
CG43133 (GeneID 12798151)	DRSC19231	0.43	0.29			
mv (GeneID 38259)	DRSC08208	0.33	0.16			
mv (GeneID 38259)	DRSC08570	0.44	0.4			
CG4942 (GeneID 39044)	DRSC10462	0.31	0.24			
CCT4 (GeneID 34674)	DRSC02865	-0.77	-0.89			
CG7741 (GeneID 36208)	DRSC07035	0.44	0.38			
CG31680 (GeneID 318881)	DRSC21878	0.06	0.37			
RpL10Aa (GeneID 41811)	DRSC15518	-2.34	-1.22			reduced secretion
Argk2 (GeneID 39040)	DRSC10483	0.47	0.22			
Sesn (GeneID 37755)	DRSC04101	0.22	0.23			
Sesn (GeneID 37755)	DRSC04102	0.19	0.5			
Sesn (GeneID 37755)	DRSC04103	0.25	0.51			
CG17030 (GeneID 38591)	DRSC08503	0.26	0.31			
Tcs5 (GeneID 38600)	DRSC09774	0.24	0.38			
Prat2 (GeneID 38753)	DRSC09692	0.11	0.28			
S-Lap7 (GeneID 36524)	DRSC06374	0.23	0.26			
CG9663 (GeneID 33541)	DRSC00724	0.15	0.41			
alpha-Catr (GeneID 49713)	DRSC04669	-0.12	0			
CG15550 (GeneID 43666)	DRSC15088	0.04	0.1			
raw (GeneID 44851)	DRSC03599	0.27	-0.05			
raw (GeneID 44851)	DRSC03600	-0.06	0.41			
CG3294 (GeneID 33677)	DRSC00590	0.26	0.32			
Hey (GeneID 35764)	DRSC07440	-1.56	-1.25			reduced secretion
CecA2 (GeneID 43597)	DRSC16604	0.39	-0.17			
Pdcd4 (GeneID 32337)	DRSC19360	0.4	0.67			
Eb1 (GeneID 35584)	DRSC05016	-0.18	0.1			
CG30177 (GeneID 246500)	DRSC22680	-1.38	-0.45			
nxf2 (GeneID 39843)	DRSC10403	0.49	0.57			
gas (GeneID 37572)	DRSC04521	0.04	0.31			
Sytbeta (GeneID 39630)	DRSC10009	0.37	0.3			
Sytbeta (GeneID 39630)	DRSC10351	0.3	0.4			
BBS9 (GeneID 37439)	DRSC04257	0.55	0.61			
Cht11 (GeneID 31630)	DRSC18270	0.15	0.39			
CG33263 (GeneID 2768952)	DRSC10108	0.25	0.28			
Csk (GeneID 41398)	DRSC12861	0.31	0.46			
Csk (GeneID 41398)	DRSC15223	0.28	0.21			
Pka-R1 (GeneID 40305)	DRSC11674	0.17	0.18			
Pka-R1 (GeneID 40305)	DRSC11875	0.17	0.15			

Next part; the last 4 above are carried over.
target	amplicon	z-score, replicate 1	z-score, replicate 2	z-score, replicate 3	z-score, replicate 4	phenotype, replicate 1
Csk (GeneID 41398)	DRSC12861	0.31	0.46			
Csk (GeneID 41398)	DRSC15223	0.28	0.21			
Pka-R1 (GeneID 40305)	DRSC11674	0.17	0.18			
Pka-R1 (GeneID 40305)	DRSC11875	0.17	0.15			
CG18682 (retired record) (GeneID 50098)	DRSC15373	-1.67	-0.13			reduced secretion
CG18682 (retired record) (GeneID 50098)	DRSC15374	0.35	-0.25	-0.57	0.19	
ATPsynGL (GeneID 34054)	DRSC03027	0.41	0.37			
CG15126 (GeneID 50202)	DRSC06548	0	0.13			
kkv (GeneID 45884)	DRSC12315	0.22	0.31			
CG10749 (GeneID 39470)	DRSC09798	0.36	0.41			
EMC1 (GeneID 40933)	DRSC15455	0.31	0.1			
Dhc16F (GeneID 32785)	DRSC20242	-0.02	0.09			
Grl36a (GeneID 170887)	DRSC21748	-0.65	-0.53			
CG18268 + CG3014	DRSC15319	0.13	0.19			
lap (GeneID 40863)	DRSC12628	-2.62	0.31			reduced secretion
CG17032 (GeneID 39736)	DRSC10241	0.56	0.19			
chp (GeneID 43690)	DRSC16925	0.08	0.19			
tacc (GeneID 40589)	DRSC12019	0.58	0.48			
tacc (GeneID 40589)	DRSC12388	0.14	0.24	-0.01	0.47	
w (GeneID 31271)	DRSC17233	0.37	0.62			
w (GeneID 31271)	DRSC18850	0.14	0.23			
S-Lap1 (GeneID 38986)	DRSC10627	0.07	0.17			
CG31643 (GeneID 318867)	DRSC00906	0.72	0.38			
Dok (GeneID 31667)	DRSC18204	-0.58	-0.16			
CG43335 (GeneID 12798413)	DRSC15764	0.14	0.34			
CG43335 (GeneID 12798413)	DRSC22671	-1.77	-0.78			reduced secretion
peo (GeneID 47272)	DRSC05995	0.26	0.27			
CG3987 (GeneID 41822)	DRSC15531	0.15	0.5			
CtsK2 (GeneID 36973)	DRSC06897	0.27	0.41			
Taf11 (GeneID 34293)	DRSC03448	-0.66	-0.47			
CG12253 (GeneID 47730)	DRSC02153	0.63	0.2			
Ubr1 (GeneID 32687)	DRSC20148	0.77	0.68			
bard (GeneID 42161)	DRSC14796	0.38	0.43			
pen-2 (GeneID 251430)	DRSC05722	0.82	0.35			
